For this experiment, the target named is human GPR17 short isoform (Homo sapiens (Human), UniProt Q13304). Description: GPR17 cAMP assay (hGPR17 cAMP, antagonist mode against EC80 of MDL29,951). Conditions: read-out: hGPR17 cAMP IC50; CHO-K1 cells stably expressing human GPR17 short isoform; EC80 of agonist MDL29,951; forskolin 15 μM. As for the experimental part:
GPR17 cAMP Assay Protocol:
CHO-K1 cells stably expressing vector containing untagged human GPR17 short isoform (Roche) were cultured at 37° C./5% CO2 in DMEM (Dulbecco's Modified Eagle Medium):F-12 (1:1) supplemented with 10% foetal bovine serum and 400 μg/ml Geneticin.
Changes in intracellular cyclic adenosine monophosphate (cAMP) levels were quantified using the Nano-TRF Detection Assay kit (Roche Diagnostics, Cat. No. 05214386001). This assay allows for direct cAMP quantification in a homogeneous solution, cAMP is detected based on time-resolved fluorescence energy transfer (TR-FRET) and competitive binding of ruthenylated cAMP and endogenous cAMP to an anti-cAMP monoclonal antibody labeled with AlexaFluor-700. The Ruthenium complex serves as the FRET donor and transfers energy to AlexaFluor-700. The FRET signal is inversely proportional to the cAMP concentration.
CHO-GPR17S cells were detached with Accutase and resuspended in assay buffer consisting of Hank's Balanced Salt Solution (HBSS), 10 mM HEPES (4-(2-hydroxyethyl) piperazine-1-ethanesulfonic acid solution) and 0.1% bovine serum albumin (pH 7.4). The cells were seeded in black 384-well plates (Corning) at a density of 10,000 cells/20 μl assay buffer until the addition of compounds. […]
Cellular cAMP was measured using a Paradigm reader (Molecular Devices). […]
Background: Cyclic AMP is a second messenger, typically raised through Gs and lowered through Gi signalling.

Protein sequences, listed by entry. Tags and fused reporters are not part of them. Residues count along the entry.
UniProt Q13304, 29-367 limits assumed: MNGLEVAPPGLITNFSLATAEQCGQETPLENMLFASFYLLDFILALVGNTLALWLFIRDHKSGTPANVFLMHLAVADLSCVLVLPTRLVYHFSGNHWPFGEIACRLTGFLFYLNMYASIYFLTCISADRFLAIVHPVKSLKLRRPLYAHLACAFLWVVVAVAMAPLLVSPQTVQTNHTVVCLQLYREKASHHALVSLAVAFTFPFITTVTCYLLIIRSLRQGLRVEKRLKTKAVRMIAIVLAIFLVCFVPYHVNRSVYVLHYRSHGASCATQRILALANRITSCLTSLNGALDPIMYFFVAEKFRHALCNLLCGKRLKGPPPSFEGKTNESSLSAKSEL

The structures appear in SMILES notation. The structures given here were assigned with low confidence; some may be wrong.

This is an account of results in patent US20240025883A1, “PYRIMIDIN-2-YL SULFONAMIDE DERIVATIVES” (Hoffmann-La Roche Inc., priority 2021, published 2024).

A word on the IC50: it is the concentration needed to halve the response being measured. For the molecule `COc1nc(NS(=O)(=O)c2c[nH]c3cc(Cl)ccc23)nc(F)c1OCC(F)F`, the IC50 turned out to be 142 nM.
Turning to `COc1nc(NS(=O)(=O)c2c[nH]c3cc(C(F)F)ccc23)nc(OC)c1OC(F)F`, the IC50 is 29 nM.
